Values of other authors in patent publication US20090035370A1, “DOSAGE FORM AND METHOD OF USE” (DRUGTECH CORPORATION, priority 2007, published 2009).

Experiments:
adrenergic a 1 receptor = adrenergic a 1 receptor in the brain
adrenergic a 2 receptor = adrenergic a 2 receptor in the brain

In the case of `OCCOCCN1CCN(C2=Nc3ccccc3Sc3ccccc32)CC1` [Quetiapine], the IC50 (adrenergic a 1 receptor) is given as 0.094 µM and the IC50 (adrenergic a 2 receptor) is given as 0.271 µM.
